Values from PubChem BioAssay AID1053209 (Peter MacCallum Cancer Centre, 2014)

- Screen: 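Gene losses that combine with doxorubicin to kill mouse bone cancer cells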 (follow-up of hits)
- Cells: mouse primary osteosarcoma cells
- Knock-down reagent: single siRNA against mouse genes, 25 nM (text also states 40 nM)
- Duration: about 120 h (48 h before drug, then 72 h with drug)
- Conditions: doxorubicin 100 nM (about IC30-40), added 48 h after transfection, for 72 h
- Read-out: 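ATP-based luminescent viability, with or without doxorubicin, relative to non-targeting control NT1, mean of two replicates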
- Direction: viability with doxorubicin, vs NT1: higher = more viable cells under doxorubicin; viability without drug, vs NT1: higher = more viable cells without drug
- Active means: 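Counted as active (class LC dox) if viability falls to 0.7 of NT1 or below under doxorubicin but stays within 0.7 to 1.1 without drug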
The whole screen tested about 1,580 reagents; shown is an unselected part. Of all reagents, 207 (13%) got an active call. 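Rows are single siRNAs; four siRNAs per gene were tested, a gene counting as confirmed only when at least two agree.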 Entries without a mark were called inactive. Reagents against one gene are numbered here. Further read-outs or replicates are left out here.

| gene | siRNA no. | combined effect class | viability with doxorubicin, vs NT1 | viability without drug, vs NT1 |
| --- | --- | --- | --- | --- |
| Fau | 1 | low viability with and without drug | 0.32 | 0.36 |
| Fau | 2 | low viability with and without drug | 0.51 | 0.68 |
| Fau | 3 | low viability with and without drug | 0.5 | 0.66 |
| Fau | 4 | low viability with and without drug | 0.57 | 0.6 |
| Nipal4 | 1 | normal viability with and without drug | 0.99 | 0.98 |
| Nipal4 | 2 | normal viability with and without drug | 1.02 | 1.04 |
| Nipal4 | 3 | low viability only without drug | 0.75 | 0.7 |
| Nipal4 | 4 | normal viability with and without drug | 1.01 | 1.05 |
| Psmb1 | 1 | low viability with and without drug | 0.52 | 0.54 |
| Psmb1 | 2 | low viability with and without drug | 0.42 | 0.6 |
| Psmb1 | 3 | low viability with and without drug | 0.14 | 0.26 |
| Psmb1 | 4 | low viability with and without drug | 0.08 | 0.22 |
| Timm44 | 1 | normal viability with and without drug | 0.94 | 0.94 |
| Timm44 | 2 | normal viability with and without drug | 0.8 | 0.79 |
| Timm44 | 3 | normal viability with and without drug | 0.84 | 0.82 |
| Timm44 | 4 | normal viability with and without drug | 0.91 | 0.93 |
| E2f4 | 1 | normal viability with and without drug | 0.92 | 0.9 |
| E2f4 | 2 | low viability only with doxorubicin; normal without drug (active) | 0.66 | 0.91 |
| E2f4 | 3 | normal viability with and without drug | 1.04 | 0.99 |
| E2f4 | 4 | normal viability with and without drug | 0.92 | 1.04 |
| Rps13 | 1 | low viability with and without drug | 0.14 | 0.17 |
| Rps13 | 2 | low viability with and without drug | 0.24 | 0.38 |
| Rps13 | 3 | low viability with and without drug | 0.16 | 0.22 |
| Rps13 | 4 | low viability with and without drug | 0.26 | 0.4 |
| Rgs20 | 1 | normal viability with and without drug | 0.98 | 1.03 |
| Rgs20 | 2 | low viability only with doxorubicin; normal without drug (active) | 0.58 | 0.71 |
| Rgs20 | 3 | normal viability with and without drug | 0.96 | 0.92 |
| Rgs20 | 4 | normal viability with and without drug | 0.91 | 1.05 |
| Bad | 1 | normal viability with and without drug | 1 | 1.04 |
| Bad | 2 | normal viability with and without drug | 1.06 | 1.06 |
| Bad | 3 | normal viability with and without drug | 0.99 | 1 |
| Bad | 4 | normal viability with and without drug | 0.82 | 0.91 |
| Il13ra1 | 1 | high viability only with doxorubicin | 1.1 | 1.08 |
| Il13ra1 | 2 | normal viability with and without drug | 0.98 | 0.92 |
| Il13ra1 | 3 | normal viability with and without drug | 1.01 | 0.94 |
| Il13ra1 | 4 | normal viability with and without drug | 0.96 | 0.97 |
| Iscu | 1 | low viability with and without drug | 0.22 | 0.45 |
| Iscu | 2 | low viability with and without drug | 0.45 | 0.69 |
| Iscu | 3 | low viability with and without drug | 0.38 | 0.38 |
| Iscu | 4 | low viability with and without drug | 0.28 | 0.6 |
| Nsfl1c | 1 | normal viability with and without drug | 0.96 | 1.08 |
| Nsfl1c | 2 | normal viability with and without drug | 0.89 | 1.01 |
| Nsfl1c | 3 | normal viability with and without drug | 1.02 | 0.98 |
| Nsfl1c | 4 | low viability only with doxorubicin; normal without drug (active) | 0.55 | 0.79 |
| Rpl13 | 1 | low viability with and without drug | 0.24 | 0.29 |
| Rpl13 | 2 | low viability with and without drug | 0.24 | 0.24 |
| Rpl13 | 3 | low viability with and without drug | 0.19 | 0.24 |
| Rpl13 | 4 | low viability with and without drug | 0.16 | 0.26 |
| Tmco6 | 1 | normal viability with and without drug | 0.78 | 1 |
| Tmco6 | 2 | normal viability with and without drug | 0.98 | 1.06 |
| Tmco6 | 3 | high viability only without drug | 0.99 | 1.1 |
| Tmco6 | 4 | normal viability with and without drug | 0.89 | 0.94 |
| Atp6v0e2 | 1 | normal viability with and without drug | 1.07 | 1.02 |
| Atp6v0e2 | 2 | normal viability with and without drug | 1.02 | 0.73 |
| Atp6v0e2 | 3 | normal viability with and without drug | 0.92 | 0.98 |
| Atp6v0e2 | 4 | normal viability with and without drug | 0.98 | 1.07 |
| Mon1a | 1 | normal viability with and without drug | 0.84 | 0.94 |
| Mon1a | 2 | normal viability with and without drug | 0.79 | 1 |
| Mon1a | 3 | normal viability with and without drug | 0.92 | 0.97 |
| Mon1a | 4 | high viability only without drug | 1.02 | 1.16 |

Records listed so far whose gene name begins with P or p:
| gene | siRNA no. | combined effect class | viability with doxorubicin, vs NT1 | viability without drug, vs NT1 |
| --- | --- | --- | --- | --- |
| Psmb1 | 1 | low viability with and without drug | 0.52 | 0.54 |
| Psmb1 | 2 | low viability with and without drug | 0.42 | 0.6 |
| Psmb1 | 3 | low viability with and without drug | 0.14 | 0.26 |
| Psmb1 | 4 | low viability with and without drug | 0.08 | 0.22 |
